The other results are listed elsewhere or left out.
What was measured:
Assay in all cases: log2 fold change, soluble protein after heating vs DMSO (PISA); higher = thermal stabilisation; K562 lysate, 10 uM; active = over 0.2 and 3.5 SD of the protein, either way, in both replicates (recomputed)
alvocidib = compound: CN1CC[C@H](c2c(O)cc(O)c3c(=O)cc(-c4ccccc4Cl)oc23)[C@H](O)C1 [alvocidib]
Outline: (§1)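 Values give the log-two fold change in thermal stability against solvent controls, from duplicates. Crude K562 extract at 1 mg/mL protein, made by dounce homogenisation in PBS pH 7.4 with 1 mM MgCl2, was treated with 10 μM compound for 30 min. After 3 min heating across 48°C-58°C, aliquots were pooled, adjusted to 0.5% NP-40 at 4°C and centrifuged at 21,000xg for 90 min. The supernatant was measured by TMTpro 16plex LC-MS/MS with channel sums equalised.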

Amino acid sequences for entries named in this document (tags omitted). A change or cut given only in a name is not applied to a line headed by its entry.
UniProt Q6P4A8: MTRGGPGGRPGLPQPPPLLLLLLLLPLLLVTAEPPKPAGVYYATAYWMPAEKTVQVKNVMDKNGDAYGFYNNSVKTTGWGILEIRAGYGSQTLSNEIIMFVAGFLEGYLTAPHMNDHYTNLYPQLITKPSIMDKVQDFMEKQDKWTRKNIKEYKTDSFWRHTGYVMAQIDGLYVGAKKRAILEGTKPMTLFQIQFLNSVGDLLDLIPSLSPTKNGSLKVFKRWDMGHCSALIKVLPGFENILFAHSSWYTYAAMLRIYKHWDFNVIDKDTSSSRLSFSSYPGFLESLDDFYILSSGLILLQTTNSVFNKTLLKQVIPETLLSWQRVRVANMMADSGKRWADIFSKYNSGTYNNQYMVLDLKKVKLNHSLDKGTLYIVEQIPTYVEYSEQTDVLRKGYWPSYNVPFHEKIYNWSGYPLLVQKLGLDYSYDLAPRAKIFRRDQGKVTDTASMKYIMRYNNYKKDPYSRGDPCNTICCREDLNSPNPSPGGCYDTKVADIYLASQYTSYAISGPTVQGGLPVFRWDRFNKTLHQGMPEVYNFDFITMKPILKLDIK
UniProt Q8N4L2: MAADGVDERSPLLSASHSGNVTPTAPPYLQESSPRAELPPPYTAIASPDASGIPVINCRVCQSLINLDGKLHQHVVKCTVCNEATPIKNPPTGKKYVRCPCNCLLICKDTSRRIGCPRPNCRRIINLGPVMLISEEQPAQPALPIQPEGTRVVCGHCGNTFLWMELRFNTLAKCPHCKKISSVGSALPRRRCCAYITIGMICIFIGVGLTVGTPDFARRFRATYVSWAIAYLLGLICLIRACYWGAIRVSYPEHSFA
UniProt Q7RTV0, whole entry, looked up: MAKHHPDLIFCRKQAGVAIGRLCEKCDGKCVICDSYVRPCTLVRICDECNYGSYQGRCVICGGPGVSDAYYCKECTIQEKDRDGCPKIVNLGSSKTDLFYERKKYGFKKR
UniProt Q13393: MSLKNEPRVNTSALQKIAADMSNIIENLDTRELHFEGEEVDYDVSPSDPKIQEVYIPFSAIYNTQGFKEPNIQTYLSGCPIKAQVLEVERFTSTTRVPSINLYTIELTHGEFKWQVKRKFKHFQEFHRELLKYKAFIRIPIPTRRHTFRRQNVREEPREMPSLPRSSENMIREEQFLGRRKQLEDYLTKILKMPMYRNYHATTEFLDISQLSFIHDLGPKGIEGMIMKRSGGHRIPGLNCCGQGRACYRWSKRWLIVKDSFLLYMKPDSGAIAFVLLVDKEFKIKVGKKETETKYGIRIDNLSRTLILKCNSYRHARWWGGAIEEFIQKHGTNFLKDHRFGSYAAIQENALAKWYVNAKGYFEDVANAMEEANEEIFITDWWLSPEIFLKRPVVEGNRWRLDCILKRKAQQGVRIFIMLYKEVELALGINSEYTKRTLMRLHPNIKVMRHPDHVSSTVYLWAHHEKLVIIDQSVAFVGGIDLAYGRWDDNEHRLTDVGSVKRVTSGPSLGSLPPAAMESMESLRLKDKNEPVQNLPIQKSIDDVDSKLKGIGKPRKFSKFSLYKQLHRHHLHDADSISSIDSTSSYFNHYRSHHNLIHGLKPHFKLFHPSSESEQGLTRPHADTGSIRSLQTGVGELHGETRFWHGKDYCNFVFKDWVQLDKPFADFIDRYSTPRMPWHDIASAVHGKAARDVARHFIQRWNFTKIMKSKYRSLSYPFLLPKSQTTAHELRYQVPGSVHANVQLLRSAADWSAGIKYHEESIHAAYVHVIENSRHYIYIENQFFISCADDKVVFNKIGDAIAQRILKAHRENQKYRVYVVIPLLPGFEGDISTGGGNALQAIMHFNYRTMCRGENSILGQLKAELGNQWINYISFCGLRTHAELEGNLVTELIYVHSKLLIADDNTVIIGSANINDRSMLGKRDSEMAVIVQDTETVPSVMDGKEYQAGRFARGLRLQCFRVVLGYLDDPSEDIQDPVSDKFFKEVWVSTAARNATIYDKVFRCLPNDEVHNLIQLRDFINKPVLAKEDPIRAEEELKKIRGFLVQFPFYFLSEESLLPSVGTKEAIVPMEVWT
UniProt Q9Y2I7: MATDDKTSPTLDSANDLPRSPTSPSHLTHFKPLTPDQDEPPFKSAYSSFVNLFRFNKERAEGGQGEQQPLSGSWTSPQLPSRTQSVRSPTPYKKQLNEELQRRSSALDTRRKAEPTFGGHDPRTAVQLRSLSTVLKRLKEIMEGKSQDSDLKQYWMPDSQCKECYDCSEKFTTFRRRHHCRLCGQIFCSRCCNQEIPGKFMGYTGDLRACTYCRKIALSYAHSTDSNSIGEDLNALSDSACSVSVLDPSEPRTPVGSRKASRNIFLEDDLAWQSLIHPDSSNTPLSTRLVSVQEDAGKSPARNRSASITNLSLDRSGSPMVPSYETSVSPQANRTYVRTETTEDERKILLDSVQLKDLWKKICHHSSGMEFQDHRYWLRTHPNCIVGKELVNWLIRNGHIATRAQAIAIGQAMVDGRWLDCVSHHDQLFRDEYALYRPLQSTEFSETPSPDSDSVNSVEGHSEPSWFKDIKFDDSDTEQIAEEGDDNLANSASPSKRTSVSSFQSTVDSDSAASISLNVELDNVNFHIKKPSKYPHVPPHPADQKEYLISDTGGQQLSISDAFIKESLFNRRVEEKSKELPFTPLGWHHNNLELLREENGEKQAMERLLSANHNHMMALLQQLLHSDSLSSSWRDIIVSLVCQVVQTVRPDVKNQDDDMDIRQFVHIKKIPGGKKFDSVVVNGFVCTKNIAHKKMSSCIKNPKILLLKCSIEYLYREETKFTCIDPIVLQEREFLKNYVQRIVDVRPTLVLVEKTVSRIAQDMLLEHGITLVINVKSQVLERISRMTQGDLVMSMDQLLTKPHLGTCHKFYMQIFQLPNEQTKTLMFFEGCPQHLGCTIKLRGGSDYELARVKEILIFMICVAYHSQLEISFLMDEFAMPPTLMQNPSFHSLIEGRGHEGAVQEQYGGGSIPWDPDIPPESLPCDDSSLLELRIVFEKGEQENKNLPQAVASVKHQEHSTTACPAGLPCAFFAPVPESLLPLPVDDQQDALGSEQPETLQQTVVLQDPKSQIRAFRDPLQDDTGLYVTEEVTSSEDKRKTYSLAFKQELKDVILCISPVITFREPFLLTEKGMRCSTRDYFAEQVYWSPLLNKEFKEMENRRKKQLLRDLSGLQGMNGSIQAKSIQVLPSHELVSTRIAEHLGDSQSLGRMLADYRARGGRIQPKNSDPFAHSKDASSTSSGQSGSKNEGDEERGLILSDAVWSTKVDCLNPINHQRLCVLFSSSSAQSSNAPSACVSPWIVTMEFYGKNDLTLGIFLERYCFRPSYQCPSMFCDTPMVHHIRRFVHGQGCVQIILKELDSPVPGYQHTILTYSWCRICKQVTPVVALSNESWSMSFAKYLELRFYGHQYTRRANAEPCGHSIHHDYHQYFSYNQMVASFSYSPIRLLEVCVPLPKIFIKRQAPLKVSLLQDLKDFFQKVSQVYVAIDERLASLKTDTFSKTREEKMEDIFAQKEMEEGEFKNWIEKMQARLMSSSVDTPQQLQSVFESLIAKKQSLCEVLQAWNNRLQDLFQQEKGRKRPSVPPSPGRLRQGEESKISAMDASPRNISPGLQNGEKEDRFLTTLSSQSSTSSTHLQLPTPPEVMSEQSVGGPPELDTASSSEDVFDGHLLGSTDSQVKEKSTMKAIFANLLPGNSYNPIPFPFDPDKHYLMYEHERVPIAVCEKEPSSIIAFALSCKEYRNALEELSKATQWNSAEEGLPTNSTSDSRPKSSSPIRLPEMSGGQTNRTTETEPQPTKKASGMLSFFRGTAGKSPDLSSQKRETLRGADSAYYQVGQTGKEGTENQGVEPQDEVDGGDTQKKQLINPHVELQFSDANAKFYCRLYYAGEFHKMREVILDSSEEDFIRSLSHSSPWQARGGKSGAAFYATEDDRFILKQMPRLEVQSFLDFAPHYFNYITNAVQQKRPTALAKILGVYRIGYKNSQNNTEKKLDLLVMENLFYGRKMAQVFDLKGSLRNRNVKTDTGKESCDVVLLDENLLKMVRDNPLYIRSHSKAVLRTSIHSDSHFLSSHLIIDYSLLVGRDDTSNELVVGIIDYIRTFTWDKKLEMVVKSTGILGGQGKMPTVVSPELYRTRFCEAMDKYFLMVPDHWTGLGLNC
UniProt Q96S52: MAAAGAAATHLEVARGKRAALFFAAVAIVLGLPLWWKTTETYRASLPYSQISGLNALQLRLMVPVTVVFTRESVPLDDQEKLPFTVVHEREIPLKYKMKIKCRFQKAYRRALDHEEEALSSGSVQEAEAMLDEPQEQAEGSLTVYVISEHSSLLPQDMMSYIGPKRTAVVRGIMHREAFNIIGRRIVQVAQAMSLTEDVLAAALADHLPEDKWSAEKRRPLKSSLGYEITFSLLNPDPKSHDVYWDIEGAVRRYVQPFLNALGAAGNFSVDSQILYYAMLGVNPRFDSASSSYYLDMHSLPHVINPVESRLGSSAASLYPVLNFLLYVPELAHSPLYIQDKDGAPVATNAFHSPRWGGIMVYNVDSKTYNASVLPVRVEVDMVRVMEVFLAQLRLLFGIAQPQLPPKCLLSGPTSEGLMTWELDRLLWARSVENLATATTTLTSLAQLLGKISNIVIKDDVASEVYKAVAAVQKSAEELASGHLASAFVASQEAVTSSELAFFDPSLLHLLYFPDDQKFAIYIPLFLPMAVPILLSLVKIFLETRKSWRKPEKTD
UniProt P12273: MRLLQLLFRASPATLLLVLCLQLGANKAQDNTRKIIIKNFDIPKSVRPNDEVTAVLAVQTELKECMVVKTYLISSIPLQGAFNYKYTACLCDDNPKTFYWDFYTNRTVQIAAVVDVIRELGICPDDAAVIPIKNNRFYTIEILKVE
UniProt P27986, whole entry, looked up: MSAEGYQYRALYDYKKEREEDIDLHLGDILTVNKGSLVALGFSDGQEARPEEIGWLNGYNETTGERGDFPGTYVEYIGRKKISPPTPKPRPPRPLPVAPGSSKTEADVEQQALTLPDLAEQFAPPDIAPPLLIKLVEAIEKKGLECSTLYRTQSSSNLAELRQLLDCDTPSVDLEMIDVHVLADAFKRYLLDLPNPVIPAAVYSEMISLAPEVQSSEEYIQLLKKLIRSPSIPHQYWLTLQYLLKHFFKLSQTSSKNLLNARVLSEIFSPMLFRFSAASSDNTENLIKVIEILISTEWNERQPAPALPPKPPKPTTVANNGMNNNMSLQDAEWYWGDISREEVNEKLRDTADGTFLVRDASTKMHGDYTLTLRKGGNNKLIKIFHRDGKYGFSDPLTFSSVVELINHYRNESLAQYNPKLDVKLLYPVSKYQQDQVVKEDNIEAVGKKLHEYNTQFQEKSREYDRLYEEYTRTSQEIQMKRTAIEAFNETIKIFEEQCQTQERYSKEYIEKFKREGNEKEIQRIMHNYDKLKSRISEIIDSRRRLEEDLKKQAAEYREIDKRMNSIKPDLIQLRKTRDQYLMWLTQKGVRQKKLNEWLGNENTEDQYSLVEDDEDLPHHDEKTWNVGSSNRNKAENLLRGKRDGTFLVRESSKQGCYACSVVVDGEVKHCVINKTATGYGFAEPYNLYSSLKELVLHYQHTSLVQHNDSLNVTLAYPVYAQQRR
UniProt Q86T03: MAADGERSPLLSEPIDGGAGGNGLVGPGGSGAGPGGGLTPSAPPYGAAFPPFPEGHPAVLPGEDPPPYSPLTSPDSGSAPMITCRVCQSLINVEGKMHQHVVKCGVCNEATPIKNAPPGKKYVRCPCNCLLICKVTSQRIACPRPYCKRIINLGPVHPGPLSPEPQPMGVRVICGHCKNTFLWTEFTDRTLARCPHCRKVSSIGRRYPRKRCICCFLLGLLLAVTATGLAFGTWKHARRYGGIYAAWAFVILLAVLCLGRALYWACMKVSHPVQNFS
UniProt O00459, whole entry, looked up: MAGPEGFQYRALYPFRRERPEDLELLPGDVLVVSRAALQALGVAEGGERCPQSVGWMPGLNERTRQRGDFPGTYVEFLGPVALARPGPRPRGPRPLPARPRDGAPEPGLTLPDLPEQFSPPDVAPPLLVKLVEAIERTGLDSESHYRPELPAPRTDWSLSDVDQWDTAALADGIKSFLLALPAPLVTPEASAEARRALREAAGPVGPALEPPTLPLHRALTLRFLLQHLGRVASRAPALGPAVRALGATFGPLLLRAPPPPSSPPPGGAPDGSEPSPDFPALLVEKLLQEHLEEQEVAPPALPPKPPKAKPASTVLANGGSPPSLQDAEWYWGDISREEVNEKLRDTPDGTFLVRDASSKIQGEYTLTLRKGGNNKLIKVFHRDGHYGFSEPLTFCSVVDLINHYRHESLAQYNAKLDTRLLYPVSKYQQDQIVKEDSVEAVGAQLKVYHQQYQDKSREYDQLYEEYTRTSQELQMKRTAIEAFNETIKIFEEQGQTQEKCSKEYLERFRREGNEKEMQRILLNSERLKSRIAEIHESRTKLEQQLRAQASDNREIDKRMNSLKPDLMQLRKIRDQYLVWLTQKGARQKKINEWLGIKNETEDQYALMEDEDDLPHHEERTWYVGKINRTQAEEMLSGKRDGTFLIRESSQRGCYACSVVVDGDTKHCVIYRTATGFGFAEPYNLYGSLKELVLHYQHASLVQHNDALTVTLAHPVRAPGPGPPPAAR

Tubastatin A = compound: CN1CCc2c(c3ccccc3n2Cc2ccc(C(=O)NO)cc2)C1 [Tubastatin A]
Outline: as §1

[1] = compound: CNC(=O)C1=CC=CC=C1NC2=NC(=NC=C2Cl)NC3=C(C=C(C=C3)N4CCOCC4)OC
Outline: as §1

defactinib = compound: CNC(=O)c1ccc(Nc2ncc(C(F)(F)F)c(NCc3nccnc3N(C)S(C)(=O)=O)n2)cc1 [defactinib]
Outline: as §1

[2] = compound: CNc1nc(-c2ccc3c(N)n[nH]c3c2)cc(N2C[C@@H](C(=O)NC3CCCCC3)CC[C@H]2C)n1
Outline: as §1

encorafenib = compound: COC(=O)N[C@@H](C)CNc1nccc(-c2cn(C(C)C)nc2-c2cc(Cl)cc(NS(C)(=O)=O)c2F)n1 [encorafenib]
Outline: as §1

[3] = compound: COC(=O)[C@H](CCSC)NC(=O)C1=C(C=C(C=C1)NC[C@H](CS)N)C2=CC=CC=C2
Outline: as §1

alisertib = compound: COc1cc(Nc2ncc3c(n2)-c2ccc(Cl)cc2C(c2c(F)cccc2OC)=NC3)ccc1C(=O)O [alisertib]
Outline: as §1

[4] = compound: COc1cc2nc(-c3cc(F)ccc3O)nc(N[C@@H]3CNC[C@H]3C(C)(C)O)c2cc1OC
Outline: as §1

gefitinib = compound: COc1cc2ncnc(Nc3ccc(F)c(Cl)c3)c2cc1OCCCN1CCOCC1 [gefitinib]
Outline: as §1

lapatinib = compound: CS(=O)(=O)CCNCc1ccc(-c2ccc3ncnc(Nc4ccc(OCc5cccc(F)c5)c(Cl)c4)c3c2)o1 [lapatinib]
Outline: as §1

pictilisib = compound: CS(=O)(=O)N1CCN(Cc2cc3nc(-c4cccc5[nH]ncc45)nc(N4CCOCC4)c3s2)CC1 [pictilisib]
Outline: as §1

crizotinib = compound: C[C@@H](Oc1cc(-c2cnn(C3CCNCC3)c2)cnc1N)c1c(Cl)ccc(F)c1Cl [crizotinib]
Outline: as §1

[5] = compound: C[C@H](C1=CC=C(C=C1)C(=O)NC2=C3C=CNC3=NC=C2)N
Outline: as §1

duvelisib = compound: C[C@H](Nc1ncnc2nc[nH]c12)c1cc2cccc(Cl)c2c(=O)n1-c1ccccc1 [duvelisib]
Outline: as §1

gandotinib = compound: Cc1cc(Nc2cc(CN3CCOCC3)c3nc(C)c(Cc4ccc(Cl)cc4F)n3n2)n[nH]1 [gandotinib]
Outline: as §1

tozasertib = compound: Cc1cc(Nc2cc(N3CCN(C)CC3)nc(Sc3ccc(NC(=O)C4CC4)cc3)n2)n[nH]1 [tozasertib]
Outline: as §1

doramapimod = compound: Cc1ccc(-n2nc(C(C)(C)C)cc2NC(=O)Nc2ccc(OCCN3CCOCC3)c3ccccc23)cc1 [doramapimod]
Outline: as §1

bafetinib = compound: Cc1ccc(NC(=O)c2ccc(CN3CC[C@H](N(C)C)C3)c(C(F)(F)F)c2)cc1Nc1nccc(-c2cncnc2)n1 [bafetinib]
Outline: as §1

[6] = compound: Cc1cccc(CC(=O)N2CCc3c2ccc(-c2cn(C)c4ncnc(N)c24)c3F)n1
Outline: as §1

Target | log2 fold change (alvocidib) | log2 fold change (Tubastatin A) | log2 fold change [1] | log2 fold change (defactinib) | log2 fold change [2] | log2 fold change (encorafenib) | log2 fold change [3] | log2 fold change (alisertib) | log2 fold change [4] | log2 fold change (gefitinib) | log2 fold change (lapatinib) | log2 fold change (pictilisib) | log2 fold change (crizotinib) | log2 fold change [5] | log2 fold change (duvelisib) | log2 fold change (gandotinib) | log2 fold change (tozasertib) | log2 fold change (doramapimod) | log2 fold change (bafetinib) | log2 fold change [6]
PLBD1 (UniProt Q6P4A8) | inactive: -0.026 | inactive: -0.012 | inactive: 0 | inactive: 0.025 | inactive: -0.013 | inactive: 0.064 | inactive: -0.058 | inactive: 0.007 | inactive: -0.019 | inactive: 0.078 | inactive: 0.056 | inactive: 0.018 | inactive: -0.035 | inactive: -0.047 | inactive: 0.001 | inactive: 0.033 | inactive: 0.006 | inactive: 0 | inactive: 0.043 | inactive: 0.03
PIP4P2 (UniProt Q8N4L2) | inactive: -0.03 | inactive: 0.038 | inactive: -0.021 | inactive: -0.009 | inactive: 0.062 | inactive: 0 | inactive: -0.12 | inactive: 0.006 | inactive: 0.052 | inactive: 0.111 | inactive: 0.021 | inactive: -0.019 | inactive: 0.021 | inactive: 0.053 | inactive: 0.027 | inactive: -0.021 | inactive: 0.061 | inactive: 0.033 | inactive: -0.09 | inactive: -0.009
PHF5A (UniProt Q7RTV0) | inactive: -0.024 | inactive: 0.03 | inactive: -0.006 | inactive: 0.026 | inactive: 0.04 | inactive: 0.004 | inactive: -0.126 | inactive: 0.016 | inactive: 0.023 | inactive: -0.052 | inactive: 0.028 | inactive: 0.013 | inactive: 0.091 | inactive: -0.064 | inactive: -0.014 | inactive: 0.036 | inactive: 0.026 | inactive: -0.044 | inactive: 0.058 | inactive: 0.039
PLD1 (UniProt Q13393) | inactive: -0.018 | inactive: 0.076 | inactive: 0.001 | inactive: 0.055 | inactive: -0.025 | inactive: 0.068 | inactive: -0.028 | inactive: -0.009 | inactive: 0.017 | inactive: 0.011 | inactive: -0.008 | inactive: -0.001 | inactive: -0.053 | inactive: -0.158 | inactive: -0.035 | inactive: 0.061 | inactive: 0.025 | inactive: 0 | inactive: -0.021 | inactive: 0.095
PIKFYVE (UniProt Q9Y2I7) | inactive: -0.049 | inactive: -0.126 | inactive: 0.032 | inactive: 0.078 | inactive: -0.031 | inactive: 0.044 | inactive: 0.088 | inactive: 0.031 | inactive: 0.004 | inactive: -0.005 | inactive: -0.039 | inactive: -0.06 | inactive: -0.002 | inactive: -0.058 | inactive: -0.013 | inactive: 0.01 | inactive: -0.014 | inactive: 0.029 | inactive: -0.053 | inactive: 0.066
PLD3 (UniProt Q8IV08) | inactive: -0.017 | inactive: 0.003 | inactive: 0.008 | inactive: -0.022 | inactive: -0.024 | inactive: 0.015 | inactive: 0.018 | inactive: -0.005 | inactive: -0.006 | inactive: 0.024 | inactive: -0.013 | inactive: -0.029 | inactive: -0.052 | inactive: -0.063 | inactive: 0.028 | inactive: 0.029 | inactive: 0 | inactive: 0.044 | inactive: 0.003 | inactive: 0.087
PIGS (UniProt Q96S52) | inactive: 0.005 | inactive: -0.004 | inactive: -0.03 | inactive: -0.028 | inactive: -0.001 | inactive: 0.019 | inactive: 0.03 | inactive: -0.014 | inactive: -0.026 | inactive: -0.044 | inactive: -0.075 | inactive: -0.042 | inactive: -0.061 | inactive: 0.006 | inactive: -0.05 | inactive: -0.101 | inactive: -0.009 | inactive: -0.003 | inactive: -0.062 | inactive: 0.041
PITPNA (UniProt Q00169) | inactive: 0.034 | inactive: 0.015 | inactive: -0.016 | inactive: -0.003 | inactive: -0.016 | inactive: -0.004 | inactive: -0.04 | inactive: 0.004 | inactive: 0.019 | inactive: 0.005 | inactive: -0.01 | inactive: 0.003 | inactive: 0.012 | inactive: 0.092 | inactive: 0.003 | inactive: -0.04 | inactive: 0.006 | inactive: 0.014 | inactive: -0.009 | inactive: -0.069
PIP (UniProt P12273) | inactive: 0.041 | inactive: 1.07 | inactive: -0.273 | inactive: 0.145 | inactive: -0.628 | inactive: -0.384 | inactive: 0.626 | inactive: -0.122 | inactive: -0.004 | inactive: 0.056 | inactive: 0.434 | inactive: 0.379 | inactive: 0.065 | inactive: 0.564 | inactive: -0.081 | inactive: -0.338 | inactive: 0.45 | inactive: -0.118 | inactive: 0.22 | inactive: 0.197
PINX1 (UniProt Q96BK5) | inactive: -0.092 | inactive: -0.058 | inactive: -0.03 | inactive: 0.022 | inactive: -0.031 | inactive: 0.044 | inactive: 0.039 | inactive: -0.04 | inactive: -0.076 | inactive: 0.144 | inactive: 0.081 | inactive: -0.049 | inactive: -0.032 | inactive: -0.005 | inactive: 0.111 | inactive: 0.201 | inactive: 0.136 | inactive: 0.035 | inactive: -0.07 | inactive: 0.265
PIK3R1 (UniProt P27986) | inactive: 0.032 | inactive: -0.037 | inactive: 0.075 | inactive: -0.066 | inactive: -0.039 | inactive: -0.025 | inactive: -0.111 | inactive: 0.078 | inactive: 0.023 | inactive: -0.045 | inactive: 0.002 | inactive: 0.374 | inactive: -0.015 | inactive: 0.033 | active: 0.534 | inactive: 0.171 | inactive: 0.039 | inactive: -0.02 | inactive: 0.007 | inactive: -0.011
PHLDB1 (UniProt Q86UU1) | inactive: -0.067 | inactive: -0.1 | inactive: -0.031 | inactive: 0.023 | inactive: 0.049 | inactive: -0.041 | inactive: -0.05 | inactive: 0.009 | inactive: -0.037 | inactive: 0.017 | inactive: -0.052 | inactive: 0.034 | inactive: -0.154 | inactive: -0.06 | inactive: -0.028 | inactive: 0.073 | inactive: -0.047 | inactive: 0.076 | inactive: -0.112 | inactive: 0.031
PIP4P1 isoform 2 (UniProt Q86T03) | inactive: -0.018 | inactive: 0.077 | inactive: 0.045 | inactive: 0.014 | inactive: -0.028 | inactive: -0.03 | inactive: -0.072 | inactive: -0.047 | inactive: 0.017 | inactive: 0.011 | inactive: 0.047 | inactive: -0.083 | inactive: -0.005 | inactive: -0.108 | inactive: 0.115 | inactive: 0.015 | inactive: 0.057 | inactive: 0.041 | inactive: 0.1 | inactive: 0.042
PIK3R2 (UniProt O00459) | inactive: 0.023 | inactive: -0.086 | inactive: 0.027 | inactive: 0.017 | inactive: -0.009 | inactive: 0.009 | inactive: -0.225 | inactive: 0.008 | inactive: 0.02 | inactive: -0.052 | inactive: -0.009 | active: 0.318 | inactive: -0.018 | inactive: 0.009 | active: 0.322 | inactive: 0.043 | inactive: 0.009 | inactive: 0.014 | inactive: -0.004 | inactive: -0.016
PIN1 (UniProt Q13526) | inactive: -0.027 | inactive: 0.008 | inactive: -0.003 | inactive: 0.02 | inactive: -0.026 | inactive: -0.014 | inactive: -0.019 | inactive: -0.001 | inactive: 0.009 | inactive: -0.02 | inactive: 0.019 | inactive: 0.003 | inactive: 0.017 | inactive: 0.008 | inactive: 0.046 | inactive: 0.076 | inactive: 0.01 | inactive: -0.028 | inactive: -0.02 | inactive: 0.03

Copied from the list:
log2 fold change (alisertib), PHF5A (UniProt Q7RTV0) reads inactive: 0.016
log2 fold change (defactinib), PLD3 (UniProt Q8IV08) reads inactive: -0.022

Source: the supplement of paper PMC10849652
